These are yes or no findings as the source states them, for the method shown. Some binding calls cover weakened binding; strength is not graded here.
Tests used:
[1] = molecular target: PCSK9蛋白 (Proprotein convertase subtilisin kexin type 9) (UniProt Q8NBP7); test: indirect phage ELISA of clones after four rounds of panning on coated PCSK9
[2] = molecular target: PCSK9蛋白 (Proprotein convertase subtilisin kexin type 9) (UniProt Q8NBP7); test: SPR affinity curve (Figure 3)

By UniProt entry, the sequences of proteins in these tests, tags left out. Residues count along the entry.
UniProt Q8NBP7, residues 31-692: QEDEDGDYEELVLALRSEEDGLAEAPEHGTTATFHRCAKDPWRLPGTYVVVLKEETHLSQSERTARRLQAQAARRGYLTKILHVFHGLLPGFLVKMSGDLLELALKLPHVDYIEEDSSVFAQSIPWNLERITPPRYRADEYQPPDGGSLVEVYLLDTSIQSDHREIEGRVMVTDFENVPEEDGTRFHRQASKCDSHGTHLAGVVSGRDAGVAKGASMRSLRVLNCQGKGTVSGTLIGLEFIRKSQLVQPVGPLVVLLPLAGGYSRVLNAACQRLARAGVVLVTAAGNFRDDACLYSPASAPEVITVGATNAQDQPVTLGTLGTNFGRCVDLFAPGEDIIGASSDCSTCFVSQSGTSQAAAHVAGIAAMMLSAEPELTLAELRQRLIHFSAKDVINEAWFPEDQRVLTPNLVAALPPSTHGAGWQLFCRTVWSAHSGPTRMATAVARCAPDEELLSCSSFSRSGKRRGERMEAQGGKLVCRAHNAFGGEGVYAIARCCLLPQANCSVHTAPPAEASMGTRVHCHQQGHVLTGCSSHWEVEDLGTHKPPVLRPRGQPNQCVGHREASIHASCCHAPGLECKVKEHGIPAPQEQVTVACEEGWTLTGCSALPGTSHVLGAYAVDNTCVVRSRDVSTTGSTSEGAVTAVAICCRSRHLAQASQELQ

B1: 纳米抗体P2-11D (anti-PCSK9 nanobody P2-11D) (VHH)
VHH: DVQLQESGGGLVQPGGSLRLSCAASGFTFRAYDMGWYRQAPGKQRDLVAVISSSGGTPNYADSVKDRFTISRDNDKNTVYLQMNSLKSEDTALYYCNARWESSAYERDYWGRGTQVTVSS
- binding [1]: binds
- binding [2]: binds

Source: patent CN115746140A
